PubChem BioAssay AID493014 (National Center for Advancing Translational Sciences (NCATS), 2011)
This is one part of the list. These are further read-outs of the screen, such as a control signal, another cell line or another target. No call is given for them. Compounds called inactive in the main read-out are mostly missing here. The note in brackets gives the kind of curve behind each potency; many fits are weak.

Experiment: qHTS Assay to Find Inhibitors of Chronic Active B-Cell Receptor Signaling
Details: ABC-DLBCL IkBa-CBG/CBR reporter, luminescence ratio (green luciferase fused to IkBa over red control in TMD8 lymphoma cells), 4 h
Summary of the method: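 TMD8 human ABC-DLBCL cells with doxycycline-inducible IκBα–green luciferase fusion and unfused red luciferase, in 0.5% FBS medium; compounds up to 46 uM, 4 h at 37C. Green/red luminescence ratio, filter-overlap corrected, fitted to concentration-response curves.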

[1] = measured here: CBR red luminescence, cell number
[2] = measured here: IkBa-CBG green luminescence

**Q.** With `Cc1ccccc1NC(=O)N1CCCC(c2nc(-c3ccc(C(C)C)cc3)no2)C1` (centres undefined) as the compound, how does the AC50 [1] read?
**A.** The AC50 was 2.24 µM [falling, full curve, poor fit].

**Q.** For `Cc1cccc(-[n+]2c(-c3cccc(Br)c3)[nH]c3nc4ccccc4nc32)c1`, which AC50 [1] is on record?
**A.** The AC50 was 2.51 µM [rising, partial curve, poor fit].

**Q.** For `O=C(CN1C(=O)C(=O)N(CCC2=CCCCC2)C1=O)c1c[nH]c2ccccc12`, which AC50 [1] is on record?
**A.** The AC50 was 5.17 µM [falling, partial curve].

**Q.** Which AC50 [1] does the source give for `O=[N+]([O-])c1cccc(COc2ncnc3cc([N+](=O)[O-])ccc23)c1` here?
**A.** Its AC50 is 8.91 µM [falling, partial curve].

**Q.** With `CCCCOC(=O)Nc1nc(C)c(C(=O)OCC)s1` as the compound, how does the AC50 [1] read?
**A.** The AC50 was 0.1 µM [falling, full curve, poor fit].

**Q.** Which AC50 [1] does the source give for `O=C(Cc1cn2ccsc2n1)OCc1nc2ccccc2s1` here?
**A.** The AC50 was 2.51 µM [rising, partial curve, poor fit].

**Q.** For `CCc1ccc(OCC(=O)Nc2cccc3nsnc23)cc1`, which AC50 [1] is on record?
**A.** The AC50 was 15.8 µM [falling, partial curve, poor fit].

**Q.** For `CN(C)CCCN(C(=O)C1COc2ccccc2O1)c1nc2cc3c(cc2s1)OCO3` (centres undefined), which AC50 [1] is on record?
**A.** Its AC50 is 1.78 µM [falling, partial curve].

**Q.** Which AC50 [1] does the source give for `Cn1c(=O)[nH]c(=O)c2c1nc(N1CCCCC1)n2CCOc1ccccc1` here?
**A.** The AC50 was 3.55 µM [rising, single point].

**Q.** Which results are given for `CC1(NC(=O)CC(c2ccccc2)(c2ccccc2)c2ccccc2)CCN(CCCc2ccccc2)C1=O` (centres undefined)?
**A.** AC50 [1]: 14.6 µM [falling, partial curve]; AC50 [2]: 16.4 µM [rising, partial curve, poor fit]

**Q.** With `O=C(O)CCn1c(-c2ccccc2)cc2ccccc21` as the compound, how does the AC50 [1] read?
**A.** The AC50 was 12.6 µM [rising, single point].

**Q.** For `Cc1ccc(C(=O)Nc2nnc(-c3ccco3)o2)cc1C`, which AC50 [1] is on record?
**A.** The AC50 was 23.1 µM [falling, single point].

**Q.** And the AC50 [2]?
**A.** The AC50 was 32.6 µM [falling, partial curve, poor fit].

**Q.** Which AC50 [1] does the source give for `O=c1cc(NC2CCCCC2)c2ccccc2o1` here?
**A.** Its AC50 is 32.6 µM [falling, single point].

**Q.** For `Cc1cc([N+](=O)[O-])ccc1NC(=S)NC(=O)Cc1ccccc1`, which AC50 [1] is on record?
**A.** The AC50 was 6.51 µM [rising, single point].

**Q.** Which AC50 [1] does the source give for `FC(F)(F)c1ccc(-c2nc(=S)[nH][nH]2)cc1` here?
**A.** Its AC50 is 11.2 µM [rising, partial curve, poor fit].

**Q.** For `COc1ccc(S(=O)(=O)NCc2ccc3c(c2)OCO3)cc1C`, which AC50 [1] is on record?
**A.** Its AC50 is 32.6 µM [rising, partial curve, poor fit].

**Q.** Which AC50 [1] does the source give for `COc1cccc(NC(=O)C(=O)NCCC2CCCCN2S(=O)(=O)c2cccs2)c1` (centres undefined) here?
**A.** The AC50 was 1.3 µM [falling, full curve].

**Q.** Which AC50 [1] does the source give for `Cc1cc(NC(=O)CSc2nc3c(C)cccc3cc2C#N)no1` here?
**A.** Its AC50 is 11.2 µM [falling, single point].

**Q.** With `COC(=O)c1ccc(-n2c(/C=C\c3cccc(Br)c3)nc3ccccc3c2=O)cc1` as the compound, how does the AC50 [1] read?
**A.** Its AC50 is 3.98 µM [rising, partial curve, poor fit].

**Q.** With `C=CC(=O)Nc1sc2c(c1C(N)=O)CCCC2` as the compound, how does the AC50 [1] read?
**A.** Its AC50 is 18.4 µM [falling, partial curve].

**Q.** For `O=C(Nc1nccs1)c1nc[nH]c1C(=O)NCc1ccccc1`, which AC50 [2] is on record?
**A.** Its AC50 is 0.146 µM [rising, full curve, poor fit].

**Q.** Which AC50 [1] does the source give for `COc1cc(NCCCC(C)N)c2ncccc2c1` (centres undefined) here?
**A.** Its AC50 is 4.47 µM [falling, full curve].

**Q.** Which AC50 [1] does the source give for `O=C(/C=C/c1ccccc1[N+](=O)[O-])N1CCOCC1` here?
**A.** Its AC50 is 0.631 µM [falling, full curve, poor fit].

**Q.** Which AC50 [1] does the source give for `CN(C)CC(O)COC(c1ccc(Cl)cc1)c1ccc(Cl)cc1` (centres undefined) here?
**A.** Its AC50 is 10 µM [falling, partial curve].

**Q.** For `Cc1ccc(C)c(CN2CCCN(Cc3cc(C)ccc3C)S2(=O)=O)c1`, which AC50 [1] is on record?
**A.** The AC50 was 8.91 µM [rising, single point].

**Q.** Which AC50 [1] does the source give for `O=C(N/N=C/c1ccco1)c1ccc(C(=O)N/N=C/c2ccco2)o1` here?
**A.** The AC50 was 17.8 µM [falling, single point].

**Q.** For `CC(Sc1ccccc1)C(=O)NCCc1ccccc1` (centres undefined), which AC50 [1] is on record?
**A.** The AC50 was 22.4 µM [rising, single point].

**Q.** For `O=C1C(Nc2ccccc2)=C(N2CCCCC2)C(=O)c2ccccc21`, which AC50 [1] is on record?
**A.** The AC50 was 20 µM [falling, single point].

**Q.** For `CCCn1nc2cc(C(=O)NC3CCc4ccccc43)ccc2c1OCC` (centres undefined), which AC50 [1] is on record?
**A.** Its AC50 is 25.9 µM [rising, single point].

**Q.** For `CC1CCCCC1NC(=O)c1ccc(NS(=O)(=O)c2ccc3[nH]c(=O)[nH]c3c2)cc1` (centres undefined), which AC50 [1] is on record?
**A.** Its AC50 is 29.1 µM [rising, single point].

**Q.** Which AC50 [1] does the source give for `c1ccc(-c2cc(-c3ccccc3)[nH]n2)cc1` here?
**A.** Its AC50 is 12.6 µM [falling, single point].

**Q.** Which AC50 [1] does the source give for `CC(C)CSc1ncc(-c2cccc(C(F)(F)F)c2)cn1` here?
**A.** Its AC50 is 7.94 µM [rising, partial curve, poor fit].

**Q.** For `CCSc1nnc(SCC(=O)NC2CCCCC2)s1`, which AC50 [1] is on record?
**A.** The AC50 was 14.6 µM [rising, partial curve, poor fit].

**Q.** With `Cc1ccccc1Nc1nc(N)nc(CSc2nnnn2-c2ccccc2)n1` as the compound, how does the AC50 [1] read?
**A.** Its AC50 is 0.0206 µM [rising, full curve, poor fit].

**Q.** Which AC50 [1] does the source give for `COC(=O)c1cccnc1NC(=S)NNC(=O)c1ccccc1` here?
**A.** Its AC50 is 0.082 µM [rising, full curve].

**Q.** Which AC50 [1] does the source give for `COc1cc(OC)cc(C(=O)N[C@H](C(=O)OCC(=O)Nc2ccc(C(N)=O)cc2)C(C)C)c1` here?
**A.** The AC50 was 10.3 µM [rising, partial curve, poor fit].

**Q.** For `N#C/C(=C\Nc1ccc2cn[nH]c2c1)c1nc(-c2ccc(Cl)cc2)cs1`, which AC50 [1] is on record?
**A.** Its AC50 is 20 µM [falling, partial curve, poor fit].

**Q.** With `Cc1nc2cc(NS(=O)(=O)c3c(C)c(C)cc(C)c3C)ccc2s1` as the compound, how does the AC50 [1] read?
**A.** The AC50 was 1.64 µM [falling, partial curve, poor fit].

**Q.** What about the AC50 [2] of the same compound?
**A.** Its AC50 is 29.1 µM [rising, partial curve, poor fit].

**Q.** For `Cc1cccc2c1-c1sc(C(=O)Nc3nccs3)cc1CO2`, which AC50 [1] is on record?
**A.** The AC50 was 0.0731 µM [falling, full curve].

**Q.** Which AC50 [1] does the source give for `CC(C)Oc1ccc(C(CC(=O)O)NC(=O)Cc2ccccc2)cc1` (centres undefined) here?
**A.** Its AC50 is 31.6 µM [rising, single point].

**Q.** With `Cc1[nH][nH]c(=O)c1[C@@H](c1ccccc1[N+](=O)[O-])C(C#N)C#N` as the compound, how does the AC50 [1] read?
**A.** Its AC50 is 0.562 µM [falling, full curve, poor fit].
